# From PubChem BioAssay AID2417 (National Center for Advancing Translational Sciences (NCATS), 2010)
# Screen size: about 140,000 compounds; about 4,300 (3.1%) were called active. Inconclusive results, whose numbers are uncertain, are shown with a selection of clear calls.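 How the source made its calls: active means readout at or below -70, meaning at least 70% loss of cells showing the perinucleolar compartment, a nuclear body marking cancer cells; inconclusive means readout between -30 and a set limit; inactive means the rest.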
# Test: High Content Assay for Compounds that inhibit the Assembly of the Perinucleolar Compartment;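 further: plate controls were DMSO wells for no effect and camptothecin positive control wells for full effect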
# Settings: PC3M PTB-GFP, PNC prevalence imaging, 16 h; at 10 µM; active compounds read low
# Method in brief: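 PC3M cells stably expressing PTB-GFP, 750–1000 cells/well, treated 16 h at 37 °C with compound (23 nl of library stock), in duplicate. After paraformaldehyde fixation and Hoechst stain, imaged at 20x; PNC prevalence scored by image analysis.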
row,Structure (SMILES),"activity change (PNC), negative = inhibition"
1,CCOc1ccccc1C1CC(=O)Nc2cc3c(cc21)OCO3 (stereo unspecified),inconclusive: -54.4%
2,NC(=O)CN1C(=O)C(O)(CC(=O)/C=C\C=C\c2ccccc2)c2ccccc21 (stereo unspecified),inconclusive: -31.3%
3,CCOc1ccc(NC(=S)N(Cc2ccc(N(C)C)cc2)Cc2ccco2)cc1,inactive: 30.4%
4,CN(C)c1nc(SCC#N)nc(N(C)C)n1,inconclusive: -38.7%
5,NC(=NC(=O)c1ccccc1)C1=C(O)CCC1=O,inconclusive: -38.6%
6,Cc1cc(SCC#N)n2nc(C)c(-c3ccccc3)c2n1,inconclusive: -32.2%
7,O=c1c2cc(Br)ccc2[nH]c(=S)n1Cc1cccnc1,inconclusive: -53.1%
8,COc1ccccc1N1CCN(C(c2ccc(F)cc2)c2nnnn2C(C)C)CC1 (stereo unspecified),inconclusive: -47.4%
9,CCN(CC)C(=O)CC(c1ccc(F)cc1)c1ccc(OC)cc1 (stereo unspecified),inactive: 15.2%
10,CC(C)(C)OC(=O)N1CCC[C@H]1c1nnc(SCc2ccccc2Cl)o1,active: -114%
11,N#CC(C#N)=NNc1ccc(S(=O)(=O)N2CCCCC2)cc1,inconclusive: -37%
12,C=CCS/C(=N\n1cnc2ccccc2c1=O)N1CCCCC1,inconclusive: -41.4%
13,S=c1[nH]nc(CSc2nc3ccccc3s2)n1Cc1ccccc1,inconclusive: -62.1%
14,COc1ccccc1N1CCN(S(=O)(=O)c2cccs2)CC1,inconclusive: -48.4%
15,Cc1ccc(-n2c(SCC(=O)N3Cc4ccccc4CC3C(=O)O)nnc2-c2cccnc2)c(C)c1 (stereo unspecified),inactive: 30.8%
16,Cc1cc(C)n(-c2ccn(Cc3ccc(Cl)cc3Cl)c(=O)n2)n1,inactive: 27.9%
17,COc1ccc(Cn2c(-c3ccc(OC)cc3)nc3ccccc32)cc1,active: -100%
18,O=C(COC(=O)c1ccccc1C(=O)N1CCN(c2ccc(F)cc2)CC1)NCc1ccccc1,inconclusive: -46.9%
19,CCn1c(CNc2ccc(C)cc2)nnc1SCC(N)=O,inactive: -5.89%

row,Structure (SMILES),"activity change (PNC), negative = inhibition"
1,Cc1nnc(NC(=O)CSc2nnc(Cc3cccn3C)n2-c2ccccc2)s1,inconclusive: -30.3%
2,COCc1c(C(N)=O)nnn1-c1nonc1N,inconclusive: -32%
3,CC(=O)Nc1ccc(S(=O)(=O)NC2(C(F)(F)F)C(=O)Nc3c2c(=O)[nH]c(=O)n3Cc2ccccc2)cc1 (stereo unspecified),inconclusive: -36.3%
4,CC(C)CC(=O)c1c[nH]c(C(=O)NCCc2ccccn2)c1,inconclusive: -61.1%
5,COc1ccc(C(=O)CC(=O)C(=O)NCCc2cccc(C)c2)cc1,inactive: 33.6%
6,Cc1ccc(C2=NC(C)(C)N=C2SCC(=O)Nc2ccc(Cl)cc2)cc1,inactive: 33.8%
7,CC1(C)Cc2c(sc(NC(=O)c3ccco3)c2C#N)CO1,inconclusive: -67.2%
8,CCS(=O)(=O)N1CCC(C(=O)NCc2ccccn2)CC1,inconclusive: -37.6%
9,CCOC(=O)CSc1nc2ccccc2c(=O)n1CC,inconclusive: -63.2%
10,Cc1nnc(C)c2c(C)n(C(C)c3ccccc3)c(C)c12 (stereo unspecified),inactive: 18.5%
11,CC1CC(C)CN(CCOc2cccc(Cl)c2Cl)C1 (stereo unspecified),inconclusive: -34.4%
12,Cc1cc(=O)[nH]c(SCC(=O)c2ccccc2)c1C#N,inconclusive: -38.7%
13,CCCCNC(=O)CCc1c(C)nc2nc(-c3cc(OC)cc(OC)c3)nn2c1C,inconclusive: -60.9%
14,CCOc1ccc(N=c2oc3cc(O)ccc3cc2C(=O)NCC2CCCO2)cc1 (stereo unspecified),inconclusive: -34.9%
15,O=C(COC(=O)c1ccccc1)NCc1cccs1,inconclusive: -45.5%
16,CC(=O)c1c(C(C)=O)c(C)n(NC(=O)c2cccnc2)c1C,inconclusive: -40.3%
17,CCOC(=O)C1/C(=N\O)CC(C)(O)C(C(=O)OCC)C1c1ccc(OC)c(OC)c1 (stereo unspecified),inconclusive: -40%
18,C/C(=N\NC(=O)c1nn(C)c(C)c1Br)c1cccc(NC(=O)c2ccoc2C)c1,inactive: 32.3%
19,Cc1c(CN(C)C)c2c(n1C)C(=O)c1ccc(Br)cc1-2,inconclusive: -52.2%

row,Structure (SMILES),"activity change (PNC), negative = inhibition"
1,COc1cc(C(O)P(=O)(OCC(C)C)OCC(C)C)cc(OC)c1OC (stereo unspecified),inconclusive: -70.6%
2,c1ccc(-c2ccc3c(c2)c2c4n3CCN=C4CCC2)cc1,inactive: -8.22%
3,Cc1[nH]n(-c2ccccc2)c(=S)c1C=NCCCN=Cc1c(C)[nH]n(-c2ccccc2)c1=S,inconclusive: -43.3%
4,Cc1ccc(-c2cc(-c3ccccc3)c3c(N)c(S(C)(=O)=O)sc3n2)cc1,inconclusive: -38.5%
5,Cn1c(-c2c(N)n(-c3ccccc3)c3nc4ccccc4nc23)nc2ccccc21,inconclusive: -70.3%
6,CCSc1nnc(C)n1-c1ccc(C(=O)O)cc1,inconclusive: -50.2%
7,Cc1ccc(N2C(=O)[C@@H]3[C@H](C2=O)C2c4ccccc4C=CN2[C@@H]3C(=O)c2ccco2)c(C)c1 (stereo partly specified),inconclusive: -63%
8,Cc1ccc(NC(=O)C(OC(=O)c2ccc(C=O)cc2)c2ccccc2)cc1Cl (stereo unspecified),inactive: 0.993%
9,O=[N+]([O-])c1ccc2c(c1)C(O)n1nc(-c3ccc(Cl)cc3Cl)nc1S2 (stereo unspecified),inconclusive: -53.3%
10,O=C(CSc1ccc2ccccc2n1)N1CCC(c2noc3ccc(F)cc23)CC1,inactive: 4.22%
11,COc1ccc(C(=O)Nc2cccc(OC)c2)cc1,inconclusive: -51%
12,CCCCCCOc1ccc(C(=O)O)cc1C#N,inconclusive: -59.7%
13,Cc1ccc(C(=O)Nc2ccc3c4c(cccc24)CC3)cc1[N+](=O)[O-],active: -81.3%
14,COCCn1c(SCC(=O)N2CCCc3ccccc32)nnc1-c1ccco1,inconclusive: -79.5%
15,O=C(Nc1ccc(Cl)cc1)[C@@H]1[C@@H]2C(=O)N(c3ccc(Cl)cc3)C(=O)[C@@H]2[C@H]2C=CC=NN21,inconclusive: -39.3%
16,O=S(=O)(NC1CCCCC1Oc1ccccc1)c1ccc(Cl)cc1 (stereo unspecified),inconclusive: -67.6%
17,Cn1c(C(=O)N2CCCC(C(=O)O)C2)cc2sccc21 (stereo unspecified),inconclusive: -47.6%
18,Cn1c(=O)c2c(ncn2CC(=O)Nc2nc3ccc(F)cc3s2)n(C)c1=O,inconclusive: -54.8%

# Single values from above:
# Under activity change (PNC), negative = inhibition, Cn1c(-c2c(N)n(-c3ccccc3)c3nc4ccccc4nc23)nc2ccccc21 has inconclusive: -70.3%
# Under activity change (PNC), negative = inhibition, COc1cc(C(O)P(=O)(OCC(C)C)OCC(C)C)cc(OC)c1OC (stereo unspecified) has inconclusive: -70.6%
